Reference: the supplement of paper PMC10849652
The list shows a part of the results.

Protein sequences, listed by entry. Tags and fused reporters are not part of them. Lines headed by an entry give the natural chain unless they say otherwise; changes in a name come on top.
UniProt Q96IU4: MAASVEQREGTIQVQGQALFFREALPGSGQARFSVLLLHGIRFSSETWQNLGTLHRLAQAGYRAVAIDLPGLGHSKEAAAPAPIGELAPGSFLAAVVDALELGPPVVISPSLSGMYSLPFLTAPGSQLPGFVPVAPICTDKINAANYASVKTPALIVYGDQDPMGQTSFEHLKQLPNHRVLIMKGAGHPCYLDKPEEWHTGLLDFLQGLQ
UniProt Q8IZP0: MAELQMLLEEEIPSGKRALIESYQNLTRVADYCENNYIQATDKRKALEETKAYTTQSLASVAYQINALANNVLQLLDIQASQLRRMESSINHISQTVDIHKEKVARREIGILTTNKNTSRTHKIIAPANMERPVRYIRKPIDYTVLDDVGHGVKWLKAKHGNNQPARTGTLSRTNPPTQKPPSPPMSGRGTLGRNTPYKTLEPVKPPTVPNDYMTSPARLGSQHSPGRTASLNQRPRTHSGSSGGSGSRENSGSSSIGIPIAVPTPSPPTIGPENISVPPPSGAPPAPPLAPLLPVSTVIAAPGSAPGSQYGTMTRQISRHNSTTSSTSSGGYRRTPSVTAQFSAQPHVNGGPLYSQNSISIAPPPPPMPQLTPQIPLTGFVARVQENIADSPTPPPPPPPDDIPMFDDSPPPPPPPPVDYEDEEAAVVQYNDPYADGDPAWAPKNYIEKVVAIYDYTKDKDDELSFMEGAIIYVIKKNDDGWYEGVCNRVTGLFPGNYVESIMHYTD
UniProt Q9BWD1: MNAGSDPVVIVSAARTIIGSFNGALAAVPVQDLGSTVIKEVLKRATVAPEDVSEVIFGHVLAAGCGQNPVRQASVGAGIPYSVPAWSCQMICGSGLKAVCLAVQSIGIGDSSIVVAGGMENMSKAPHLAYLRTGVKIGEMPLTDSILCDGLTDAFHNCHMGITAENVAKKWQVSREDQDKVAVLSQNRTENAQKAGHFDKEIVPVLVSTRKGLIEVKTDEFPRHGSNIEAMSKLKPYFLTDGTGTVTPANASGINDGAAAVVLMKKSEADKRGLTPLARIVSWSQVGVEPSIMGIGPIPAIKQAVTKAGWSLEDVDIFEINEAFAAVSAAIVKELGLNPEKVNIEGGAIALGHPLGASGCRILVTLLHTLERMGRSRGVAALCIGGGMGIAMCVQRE
UniProt Q6UWZ7: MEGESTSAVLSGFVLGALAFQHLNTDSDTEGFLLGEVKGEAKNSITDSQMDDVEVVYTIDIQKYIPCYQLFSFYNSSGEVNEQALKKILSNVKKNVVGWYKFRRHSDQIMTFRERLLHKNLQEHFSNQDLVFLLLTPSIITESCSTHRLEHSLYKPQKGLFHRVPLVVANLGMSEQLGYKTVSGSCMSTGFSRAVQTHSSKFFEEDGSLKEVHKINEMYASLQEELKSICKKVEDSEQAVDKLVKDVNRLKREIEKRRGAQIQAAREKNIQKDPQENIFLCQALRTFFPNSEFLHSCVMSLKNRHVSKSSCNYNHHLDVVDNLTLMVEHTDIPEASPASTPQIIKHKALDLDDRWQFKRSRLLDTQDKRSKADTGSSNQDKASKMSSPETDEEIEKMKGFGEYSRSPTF
UniProt Q9NX38: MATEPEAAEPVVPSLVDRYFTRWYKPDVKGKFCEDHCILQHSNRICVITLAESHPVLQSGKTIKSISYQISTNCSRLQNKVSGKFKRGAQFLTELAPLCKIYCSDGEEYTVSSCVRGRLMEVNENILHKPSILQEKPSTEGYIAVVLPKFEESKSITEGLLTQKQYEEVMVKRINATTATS
UniProt Q9H845: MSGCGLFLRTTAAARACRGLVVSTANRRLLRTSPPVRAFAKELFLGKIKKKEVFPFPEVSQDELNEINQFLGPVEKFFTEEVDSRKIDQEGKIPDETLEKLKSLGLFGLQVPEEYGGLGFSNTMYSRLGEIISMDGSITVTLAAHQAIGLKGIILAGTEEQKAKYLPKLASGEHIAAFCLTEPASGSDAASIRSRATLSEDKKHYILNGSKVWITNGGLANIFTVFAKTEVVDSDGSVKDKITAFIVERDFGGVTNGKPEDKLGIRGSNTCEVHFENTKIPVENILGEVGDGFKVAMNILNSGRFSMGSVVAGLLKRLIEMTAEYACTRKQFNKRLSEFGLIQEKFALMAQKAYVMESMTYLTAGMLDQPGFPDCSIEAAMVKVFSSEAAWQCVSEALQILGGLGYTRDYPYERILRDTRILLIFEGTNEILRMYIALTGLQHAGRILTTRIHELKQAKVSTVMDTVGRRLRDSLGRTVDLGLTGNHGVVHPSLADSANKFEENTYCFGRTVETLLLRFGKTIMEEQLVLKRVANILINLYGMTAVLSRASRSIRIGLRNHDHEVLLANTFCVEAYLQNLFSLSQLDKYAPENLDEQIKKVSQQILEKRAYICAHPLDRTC
UniProt Q5VST6: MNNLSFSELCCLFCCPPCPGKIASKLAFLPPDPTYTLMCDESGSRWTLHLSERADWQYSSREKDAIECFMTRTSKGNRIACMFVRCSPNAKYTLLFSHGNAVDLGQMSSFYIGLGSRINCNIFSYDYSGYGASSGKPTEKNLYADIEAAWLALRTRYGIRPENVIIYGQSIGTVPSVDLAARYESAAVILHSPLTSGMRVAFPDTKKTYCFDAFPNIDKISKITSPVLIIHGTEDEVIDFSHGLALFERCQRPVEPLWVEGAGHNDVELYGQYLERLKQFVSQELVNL
UniProt Q9NYB9: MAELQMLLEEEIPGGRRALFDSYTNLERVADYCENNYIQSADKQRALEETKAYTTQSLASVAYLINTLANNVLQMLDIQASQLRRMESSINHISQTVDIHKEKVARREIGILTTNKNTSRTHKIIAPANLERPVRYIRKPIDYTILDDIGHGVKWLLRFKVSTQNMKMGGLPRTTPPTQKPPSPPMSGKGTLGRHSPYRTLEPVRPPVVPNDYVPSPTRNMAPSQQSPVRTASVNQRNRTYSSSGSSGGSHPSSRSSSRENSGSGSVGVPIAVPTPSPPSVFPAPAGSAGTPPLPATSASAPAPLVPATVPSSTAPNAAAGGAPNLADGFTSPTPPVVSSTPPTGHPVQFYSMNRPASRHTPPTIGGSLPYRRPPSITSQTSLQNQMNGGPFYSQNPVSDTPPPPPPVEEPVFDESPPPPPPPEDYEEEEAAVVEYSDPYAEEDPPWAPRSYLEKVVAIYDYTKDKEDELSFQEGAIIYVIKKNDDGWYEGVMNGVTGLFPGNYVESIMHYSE
UniProt Q6PD74: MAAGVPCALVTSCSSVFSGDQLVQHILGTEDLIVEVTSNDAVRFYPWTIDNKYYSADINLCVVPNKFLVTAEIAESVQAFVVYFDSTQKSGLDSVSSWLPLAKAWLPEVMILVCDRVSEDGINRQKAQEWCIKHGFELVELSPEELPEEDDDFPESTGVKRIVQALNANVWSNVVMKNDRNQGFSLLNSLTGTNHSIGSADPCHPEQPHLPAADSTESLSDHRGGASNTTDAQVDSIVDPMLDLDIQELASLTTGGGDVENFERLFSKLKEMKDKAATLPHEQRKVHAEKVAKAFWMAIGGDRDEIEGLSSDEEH
UniProt P28288: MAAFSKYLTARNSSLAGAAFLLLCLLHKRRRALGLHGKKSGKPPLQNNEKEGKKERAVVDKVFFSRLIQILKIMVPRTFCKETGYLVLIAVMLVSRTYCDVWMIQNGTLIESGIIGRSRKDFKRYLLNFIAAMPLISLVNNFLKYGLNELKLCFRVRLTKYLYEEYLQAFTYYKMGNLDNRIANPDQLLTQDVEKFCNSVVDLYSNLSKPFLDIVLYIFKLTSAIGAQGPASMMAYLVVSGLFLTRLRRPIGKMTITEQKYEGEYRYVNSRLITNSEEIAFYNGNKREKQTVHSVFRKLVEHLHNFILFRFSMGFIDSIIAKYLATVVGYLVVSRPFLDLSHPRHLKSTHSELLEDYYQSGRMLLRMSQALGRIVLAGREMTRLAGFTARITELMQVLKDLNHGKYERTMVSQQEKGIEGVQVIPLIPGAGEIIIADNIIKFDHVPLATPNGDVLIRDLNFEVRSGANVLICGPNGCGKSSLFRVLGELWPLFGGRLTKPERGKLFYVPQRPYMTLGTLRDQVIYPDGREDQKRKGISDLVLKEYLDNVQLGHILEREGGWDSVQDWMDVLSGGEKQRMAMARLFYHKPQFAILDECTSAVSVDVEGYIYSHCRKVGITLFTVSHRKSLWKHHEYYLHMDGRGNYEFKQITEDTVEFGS
UniProt O14639: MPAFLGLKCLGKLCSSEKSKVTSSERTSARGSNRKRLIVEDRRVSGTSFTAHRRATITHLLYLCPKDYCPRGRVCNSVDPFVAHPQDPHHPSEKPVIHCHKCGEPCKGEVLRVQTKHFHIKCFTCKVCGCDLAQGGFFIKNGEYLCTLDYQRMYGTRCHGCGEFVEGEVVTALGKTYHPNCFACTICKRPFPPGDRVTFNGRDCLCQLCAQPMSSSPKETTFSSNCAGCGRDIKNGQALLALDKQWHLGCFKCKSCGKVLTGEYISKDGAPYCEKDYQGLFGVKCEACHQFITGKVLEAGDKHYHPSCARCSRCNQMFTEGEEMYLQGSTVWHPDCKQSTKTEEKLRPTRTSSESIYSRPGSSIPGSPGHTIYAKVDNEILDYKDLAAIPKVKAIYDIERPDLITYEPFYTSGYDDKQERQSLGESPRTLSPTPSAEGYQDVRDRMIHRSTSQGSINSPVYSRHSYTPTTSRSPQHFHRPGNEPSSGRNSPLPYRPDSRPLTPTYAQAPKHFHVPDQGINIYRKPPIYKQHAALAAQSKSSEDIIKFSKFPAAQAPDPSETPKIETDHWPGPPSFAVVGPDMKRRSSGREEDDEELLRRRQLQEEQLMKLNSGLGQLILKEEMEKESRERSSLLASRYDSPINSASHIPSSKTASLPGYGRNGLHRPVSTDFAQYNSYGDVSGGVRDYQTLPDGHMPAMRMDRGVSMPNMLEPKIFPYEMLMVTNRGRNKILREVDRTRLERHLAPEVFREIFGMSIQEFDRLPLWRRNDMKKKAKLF
UniProt O95870: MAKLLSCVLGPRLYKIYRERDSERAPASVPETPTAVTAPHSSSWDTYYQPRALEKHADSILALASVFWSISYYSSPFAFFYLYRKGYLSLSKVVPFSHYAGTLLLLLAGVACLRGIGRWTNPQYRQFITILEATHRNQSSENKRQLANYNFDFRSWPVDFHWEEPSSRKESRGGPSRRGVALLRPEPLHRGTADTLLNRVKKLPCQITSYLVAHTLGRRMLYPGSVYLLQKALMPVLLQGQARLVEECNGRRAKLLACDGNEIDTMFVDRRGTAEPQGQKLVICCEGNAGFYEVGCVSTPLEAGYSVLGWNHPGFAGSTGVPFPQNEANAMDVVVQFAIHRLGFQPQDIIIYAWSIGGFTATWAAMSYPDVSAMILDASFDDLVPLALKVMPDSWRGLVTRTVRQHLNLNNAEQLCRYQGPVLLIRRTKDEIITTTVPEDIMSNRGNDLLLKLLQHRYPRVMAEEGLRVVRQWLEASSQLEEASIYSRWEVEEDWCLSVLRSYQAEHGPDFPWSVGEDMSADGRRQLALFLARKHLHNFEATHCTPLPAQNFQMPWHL
UniProt Q5JTZ9, whole entry, looked up: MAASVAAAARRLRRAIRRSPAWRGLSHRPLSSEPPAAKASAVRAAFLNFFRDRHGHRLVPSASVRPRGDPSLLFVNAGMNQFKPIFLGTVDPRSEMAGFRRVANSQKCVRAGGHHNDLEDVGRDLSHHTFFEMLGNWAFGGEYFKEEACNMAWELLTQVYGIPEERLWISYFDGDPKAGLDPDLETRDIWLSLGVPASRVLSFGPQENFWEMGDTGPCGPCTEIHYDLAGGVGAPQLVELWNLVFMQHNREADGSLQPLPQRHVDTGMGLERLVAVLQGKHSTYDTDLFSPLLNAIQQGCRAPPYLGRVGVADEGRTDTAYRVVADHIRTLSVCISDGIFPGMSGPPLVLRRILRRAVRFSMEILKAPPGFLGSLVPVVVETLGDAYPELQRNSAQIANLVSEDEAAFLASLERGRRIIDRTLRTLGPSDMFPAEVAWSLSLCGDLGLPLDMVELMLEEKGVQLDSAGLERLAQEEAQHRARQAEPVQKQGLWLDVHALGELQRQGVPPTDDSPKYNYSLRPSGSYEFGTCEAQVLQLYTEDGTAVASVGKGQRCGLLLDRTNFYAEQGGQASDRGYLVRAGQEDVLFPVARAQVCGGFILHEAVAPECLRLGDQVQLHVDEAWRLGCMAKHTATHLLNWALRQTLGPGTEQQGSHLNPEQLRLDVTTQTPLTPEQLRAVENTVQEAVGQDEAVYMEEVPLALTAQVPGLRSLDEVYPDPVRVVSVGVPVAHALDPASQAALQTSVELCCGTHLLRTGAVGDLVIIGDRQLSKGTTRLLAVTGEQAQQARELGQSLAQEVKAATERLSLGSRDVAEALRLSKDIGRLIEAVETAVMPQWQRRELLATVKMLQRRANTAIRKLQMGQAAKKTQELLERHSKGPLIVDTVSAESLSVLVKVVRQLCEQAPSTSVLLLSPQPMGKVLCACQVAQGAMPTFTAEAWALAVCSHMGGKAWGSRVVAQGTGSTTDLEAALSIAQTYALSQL

Assays:
Test in all cases: log2 fold change, soluble protein after heating vs DMSO (PISA); higher = thermal stabilisation; K562 lysate, 10 uM; active = over 0.2 and 3.5 SD of the protein, either way, in both replicates (recomputed)
[1] = compound: C=CC(=O)N1CCC[C@@H](n2nc(-c3ccc(Oc4ccccc4)cc3)c3c(N)ncnc32)C1 [ibrutinib]
Summary of the method: (§1)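 Dounce homogenisation of K562 pellets in PBS pH 7.4 with 1 mM MgCl2 produced a crude extract, used at 1 mg/mL protein. Exposure to 10 μM compound lasted 30 min, and aliquots were then heated for 3 min across 48°C-58°C, pooled and brought to 0.5% NP-40 at 4°C. The supernatant after 21,000xg for 90 min was quantified by TMTpro 16plex LC-MS/MS with channel sums equalised. Duplicate values are given as log-two fold change in thermal stability relative to solvent controls.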

[2] = compound: CC(=O)c1cnc2ccc(-c3cc(Cl)c(O)c(Cl)c3)nc2c1N[C@H]1CC[C@H](CN(C)C)CC1
Summary of the method: as §1

[3] = compound: CC(C)(C)Cn1c(N)nc2ccc(-c3[nH]c(C(C)(C)C)nc3-c3ccc(F)cc3)nc21 [ralimetinib]
Summary of the method: as §1

[4] = compound: CC(C)(O)CC(=O)NCCn1ccc2ncnc(Nc3ccc(Oc4cccc(C(F)(F)F)c4)c(Cl)c3)c21
Summary of the method: as §1

[5] = compound: CC(C)C1=C2N=C(C=C(N2N=C1)NCC3=CC=CC=C3)NCCCCCCN
Summary of the method: as §1

[6] = compound: CC1=C(C(CC(=O)N1)C2=CC=C(C=C2)C(F)(F)F)C(=O)NC3=C(C=C4C(=C3)C=NN4)F
Summary of the method: as §1

[7] = compound: CC1=C(C2=C(C=C1)C(=O)C3=CC=CC=C3N2CCCN)C
Summary of the method: as §1

[8] = compound: CC1=C(C=C(C=C1)NC(=O)C2=CC(=CC=C2)C(C)(C)C#N)NC3=CC4=C(C=C3)N=CN(C4=O)C
Summary of the method: as §1

[9] = compound: CC1=C(C=C(C=C1)NC(=O)C2=CC(=CC=C2)N(C)C)NC(=O)C3=CC=C(C=C3)O
Summary of the method: as §1

[10] = compound: CC1=CC=C(C=C1)SC2=C3C=C(SC3=CN=C2)C(=O)N
Summary of the method: as §1

Measured: log2 fold change

AARSD1 isoform 3 (UniProt Q9BTE6)
inactive: [1] -0.02 | [2] 0.013 | [3] -0.004 | [4] 0.016 | [5] 0.007 | [6] -0.029 | [7] 0.022 | [8] -0.025 | [9] 0.019 | [10] -0.006

ACO2 (UniProt Q99798)
inactive: [1] -0.007 | [2] 0.011 | [3] -0.006 | [4] -0.031 | [5] -0.007 | [6] -0.017 | [7] 0.016 | [8] -0.004 | [9] -0.012 | [10] -0.005

ABHD14B (UniProt Q96IU4)
inactive: [1] -0.037 | [2] -0.003 | [3] 0.014 | [4] -0.037 | [5] 0.003 | [6] -0.032 | [7] -0.053 | [8] 0.015 | [9] -0.004 | [10] 0.016

ABI1 isoform 9 (UniProt Q8IZP0)
inactive: [1] 0.034 | [2] 0.023 | [3] -0.031 | [4] -0.005 | [5] 0.031 | [6] -0.02 | [7] -0.008 | [8] 0.024 | [9] -0.012 | [10] 0.003

ACACA isoform 4 (UniProt Q13085)
inactive: [1] 0.038 | [2] 0.021 | [3] 0.041 | [4] 0.013 | [5] 0.01 | [6] -0.027 | [7] -0.002 | [8] 0.021 | [9] 0.048 | [10] 0.035

A0A0B4J2A0, A0A0B4J2A0
inactive: [1] 0.031 | [2] 0.039 | [3] 0.015 | [4] -0.079 | [5] -0.013 | [6] 0 | [7] -0.018 | [8] 0.002 | [9] 0.025 | [10] -0.004

ABRAXAS2 (UniProt Q15018)
inactive: [1] -0.001 | [2] 0.029 | [3] 0.023 | [4] 0.034 | [5] 0.008 | [6] 0.022 | [7] -0.01 | [8] 0.007 | [9] 0.004 | [10] 0.029

AARS (UniProt P49588)
inactive: [1] -0.001 | [2] 0.003 | [3] -0.004 | [4] 0.021 | [5] -0.009 | [6] -0.022 | [7] 0.035 | [8] -0.013 | [9] 0.004 | [10] 0.017

ACIN1 (UniProt E7EQT4)
inactive: [1] 0.049 | [2] -0.033 | [3] 0.123 | [4] -0.052 | [5] 0.028 | [6] -0.017 | [7] -0.052 | [8] 0.094 | [9] -0.03 | [10] -0.002

ACADVL isoform 3 (UniProt P49748)
inactive: [1] 0.014 | [2] 0.006 | [3] 0.018 | [4] -0.066 | [5] 0.095 | [6] -0.01 | [7] -0.012 | [8] -0.043 | [9] -0.014 | [10] 0.007

ACAT2 (UniProt Q9BWD1)
inactive: [1] 0.087 | [2] 0.024 | [3] -0.018 | [4] -0.007 | [5] 0.035 | [6] -0.022 | [7] -0.002 | [8] -0.006 | [9] -0.005 | [10] -0.019

ABRAXAS1 (UniProt Q6UWZ7)
inactive: [1] 0.006 | [2] -0.002 | [3] 0.088 | [4] 0.012 | [5] -0.002 | [6] 0.02 | [7] 0.012 | [8] 0.031 | [9] 0.002 | [10] -0.009

Copied from above (nine entries):
ACO2 (UniProt Q99798)
inactive: [1] -0.007 | [2] 0.011 | [3] -0.006 | [4] -0.031 | [5] -0.007 | [6] -0.017 | [7] 0.016 | [8] -0.004 | [9] -0.012 | [10] -0.005

ABHD14B (UniProt Q96IU4)
inactive: [1] -0.037 | [2] -0.003 | [3] 0.014 | [4] -0.037 | [5] 0.003 | [6] -0.032 | [7] -0.053 | [8] 0.015 | [9] -0.004 | [10] 0.016

ABI1 isoform 9 (UniProt Q8IZP0)
inactive: [1] 0.034 | [2] 0.023 | [3] -0.031 | [4] -0.005 | [5] 0.031 | [6] -0.02 | [7] -0.008 | [8] 0.024 | [9] -0.012 | [10] 0.003

ACACA isoform 4 (UniProt Q13085)
inactive: [1] 0.038 | [2] 0.021 | [3] 0.041 | [4] 0.013 | [5] 0.01 | [6] -0.027 | [7] -0.002 | [8] 0.021 | [9] 0.048 | [10] 0.035

A0A0B4J2A0, A0A0B4J2A0
inactive: [1] 0.031 | [2] 0.039 | [3] 0.015 | [4] -0.079 | [5] -0.013 | [6] 0 | [7] -0.018 | [8] 0.002 | [9] 0.025 | [10] -0.004

ABRAXAS2 (UniProt Q15018)
inactive: [1] -0.001 | [2] 0.029 | [3] 0.023 | [4] 0.034 | [5] 0.008 | [6] 0.022 | [7] -0.01 | [8] 0.007 | [9] 0.004 | [10] 0.029

AARS (UniProt P49588)
inactive: [1] -0.001 | [2] 0.003 | [3] -0.004 | [4] 0.021 | [5] -0.009 | [6] -0.022 | [7] 0.035 | [8] -0.013 | [9] 0.004 | [10] 0.017

ACIN1 (UniProt E7EQT4)
inactive: [1] 0.049 | [2] -0.033 | [3] 0.123 | [4] -0.052 | [5] 0.028 | [6] -0.017 | [7] -0.052 | [8] 0.094 | [9] -0.03 | [10] -0.002

ACADVL isoform 3 (UniProt P49748)
inactive: [1] 0.014 | [2] 0.006 | [3] 0.018 | [4] -0.066 | [5] 0.095 | [6] -0.01 | [7] -0.012 | [8] -0.043 | [9] -0.014 | [10] 0.007

Later entries.

ABITRAM (UniProt Q9NX38)
inactive: [1] 0.024 | [2] 0.061 | [3] 0.001 | [4] -0.01 | [5] -0.048 | [6] 0.044 | [7] -0.049 | [8] 0.005 | [9] 0.049 | [10] -0.096

ACBD6 (UniProt Q9BR61)
inactive: [1] 0.007 | [2] 0.038 | [3] 0.012 | [4] -0.039 | [5] 0.002 | [6] 0.034 | [7] 0.001 | [8] 0.062 | [9] 0.027 | [10] -0.057

ACLY (UniProt P53396)
inactive: [1] -0.002 | [2] 0.003 | [3] 0.001 | [4] -0.011 | [5] 0.02 | [6] -0.02 | [7] 0.014 | [8] -0.014 | [9] -0.012 | [10] 0.054

ACAP2 (UniProt Q15057)
inactive: [1] -0.013 | [2] 0.007 | [3] 0 | [4] -0.027 | [5] -0.001 | [6] 0.01 | [7] 0.018 | [8] -0.027 | [9] -0.008 | [10] -0.017

ACADS (UniProt P16219)
inactive: [1] -0.006 | [2] 0.031 | [3] 0.004 | [4] -0.026 | [5] -0.002 | [6] -0.041 | [7] -0.022 | [8] 0.004 | [9] -0.027 | [10] 0.018

ACAD9 (UniProt Q9H845)
inactive: [1] 0.007 | [2] -0.027 | [3] -0.011 | [4] 0.026 | [5] -0.024 | [6] 0.019 | [7] -0.019 | [8] 0.036 | [9] -0.008 | [10] 0.033

ABHD17B (UniProt Q5VST6)
inactive: [1] 0.067 | [2] -0.031 | [3] -0.053 | [4] -0.037 | [5] -0.036 | [6] -0.076 | [7] 0.001 | [8] 0.013 | [9] 0.127 | [10] 0.018

ACIN1 isoform 5 (UniProt Q9UKV3)
inactive: [1] -0.004 | [2] -0.015 | [3] -0.011 | [4] -0.028 | [5] -0.021 | [6] -0.024 | [7] -0.001 | [8] -0.042 | [9] 0.003 | [10] -0.016

AASDHPPT (UniProt Q9NRN7)
inactive: [1] -0.006 | [2] -0.004 | [3] 0.013 | [4] 0.001 | [5] -0.004 | [6] -0.021 | [7] 0.027 | [8] 0.014 | [9] -0.017 | [10] 0.01

ABI2 (UniProt Q9NYB9)
inactive: [1] 0.055 | [2] 0.016 | [3] 0.03 | [4] -0.002 | [5] -0.002 | [6] 0.015 | [7] 0.039 | [8] -0.069 | [9] -0.034 | [10] 0.089

AAGAB (UniProt Q6PD74)
inactive: [1] -0.016 | [2] 0.017 | [3] 0.088 | [4] 0.04 | [5] -0.055 | [6] 0.012 | [7] 0.013 | [8] 0.036 | [9] 0.006 | [10] -0.017

ABL2 (UniProt P42684)
inactive: [2] 0.078 | [3] 0.005 | [4] 0.002 | [5] 0.002 | [6] -0.057 | [7] -0.112 | [8] 0.154 | [9] 0.093 | [10] -0.046
active: [1] 0.586

AAMP (UniProt Q13685)
inactive: [1] 0.023 | [2] 0.001 | [3] -0.009 | [4] -0.021 | [5] -0.041 | [6] -0.022 | [7] -0.01 | [8] 0.02 | [9] -0.049 | [10] -0.025

ABCD3 (UniProt P28288)
inactive: [1] -0.035 | [2] -0.083 | [3] -0.067 | [4] 0.064 | [5] 0.185 | [6] 0.01 | [7] -0.096 | [8] -0.028 | [9] -0.073 | [10] -0.031

ABLIM1 (UniProt O14639)
inactive: [1] 0.032 | [2] -0.042 | [3] -0.027 | [4] -0.075 | [5] -0.042 | [6] 0.037 | [7] -0.063 | [8] 0.09 | [9] 0.025 | [10] -0.033

ABHD16A (UniProt O95870)
inactive: [1] -0.01 | [2] 0.004 | [3] 0.029 | [4] 0.018 | [5] 0.027 | [6] -0.022 | [7] 0.03 | [8] -0.031 | [9] -0.077 | [10] -0.011

AARS2 (UniProt Q5JTZ9)
inactive: [1] 0 | [2] -0.052 | [3] 0.025 | [4] -0.018 | [5] 0.029 | [6] 0.009 | [7] 0.02 | [8] -0.006 | [9] 0.035 | [10] -0.03
